# Assay: Body weight and fasting plasma parameters in diabetic and hypercortisolemic rats
# Assay type: in vivo, rat
# Protocol: All animal procedures were performed in accordance with the NIH Guidance for the Care and Use of Laboratory Animals. The current study used, respectively the GK and Dexamethasone-treated rats as models for diabetes and hypercortisolemia. Dexamethasone was administered subcutaneously at a dose of 2.5 μg/kg body weight in the morning (8:00 AM) and in the evening (8:00 PM) for a duration of four weeks before wounding and this form of therapy continued during the course of healing. […] Weight and age-matched female Wistar rats (Kuwait University breeding colony) served as the corresponding controls. All of the animals were maintained under standard conditions with 12 hours on/off light cycle, commercial diet, and water ad libitum. GK rats destined for wounding were initially matched with regard to body weight (e.g., 230 to 250 g), and plasma levels of glucose, free fatty acids and insulin. These indices are commonly used to reflect the severity of the diabetic state.
# Animals used for IGF-1 sensitivity (n=6/group) and wound healing (n=8) studies were partitioned into five study groups including control, diabetic, hypercortisolemic, diabetic+EUK and hypercortisolemic+EUK. The EUK-134 was administered for duration of four weeks before wound induction and it continued during the course of healing.
smiles,measurement,setting,value
COc1cccc(C=NCCN=Cc2cccc(OC)c2[O-])c1[O-].[Cl-].[Mn+3] [EUK-134],BW (body weight),dexamethasone-treated (hypercortisolemic) rats + EUK-134 12.5 mg/kg ip every other day,240 ± 15 g
same,BW (body weight),diabetic (GK) rats + EUK-134 12.5 mg/kg ip every other day,245 ± 17 g
